Source: patent US20210395676A1, “CARRIER FOR CELL CULTURE COMPRISING MICROCAPSULES CONTAINING NATURAL OIL” (Korea Research Institute of Chemical Technology, priority 2018, published 2021)

Tested on: artificial myocardial structure (cardiac organoid)
Assay: Contractile force-based cardiac toxicity assessment of drug-treated artificial myocardial structure
Type: cell-based
Conditions: 100 nM; FIG. 15
Description: Furthermore, after additionally treating an artificial myocardial structure prepared by coculturing gelatin oil capsules and cardiomyocytes with various drugs, contractile forces of the drug-treated artificial myocardial structure were checked.

COC(=O)C1=C(C)NC(C)=C(C(=O)OC)C1c1ccccc1[N+](=O)[O-] [Nifedipine]
beat rates: changed into slow beat rates
contractile forces: weakened
